From patent publication US11642316B2, “Water-soluble curcumin mixture with high bioavailability and preparation method and application thereof” (HENAN ZHONGDA HENGYUAN BIOTECHNOLOGY STOCK CO., LTD., priority 2021, dated 2023)

Tests used:
[1] = Solubility in water (dispersed in water); type: physicochemical
[2] = background statement; cited from earlier work

COc1cc(/C=C/C(=O)CC(=O)/C=C/c2ccc(O)c(OC)c2)ccc1O [curcumin]
water solubility [1]: insoluble
solubility in water [2]: basically insoluble
